{"sequences": {"note": "By UniProt entry, the sequences of proteins in these tests, tags left out. Residues count along the entry.", "UniProt Q03405, 23-305": "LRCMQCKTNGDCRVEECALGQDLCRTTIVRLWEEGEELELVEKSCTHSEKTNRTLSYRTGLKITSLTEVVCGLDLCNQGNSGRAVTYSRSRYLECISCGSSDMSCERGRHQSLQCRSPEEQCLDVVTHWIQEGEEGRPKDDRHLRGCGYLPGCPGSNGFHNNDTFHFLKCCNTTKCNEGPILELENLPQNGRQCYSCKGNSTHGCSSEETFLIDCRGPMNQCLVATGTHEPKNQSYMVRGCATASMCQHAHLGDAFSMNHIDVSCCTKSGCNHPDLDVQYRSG"}, "source": "patent US20260224762A1", "about": "“RADIONUCLIDE LABELLED PEPTIDE CONJUGATE FOR SITE-SPECIFIC UPAR-TARGETING” (CURASIGHT A/S, priority 2023, published 2026)", "key": {"[1]": {"system": "subcutaneous U87 MG tumors", "type": "in vivo, female NMRI nude mice"}, "uPAR": {"molecular_target": "uPAR (Homo sapiens, UniProt Q03405)", "assay": "uPAR binding by Surface Plasmon Resonance (SPR)", "conditions": "read-out: SPR K(D); 18 degrees Celsius, HEPES pH 7.4; listed as cold version of 212Pb-DOTA-AE105", "protocol": "Characterization of the binding properties of lead (Pb) labelled DOTA-AE105 to its target i.e. uPAR was measured by Surface Plasmon Resonance (SPR) and expressed as the binding constant (KD), which is a measure of affinity of the conjugate towards its target.\nCharacterizing the interaction between a target protein (in this case uPAR) and a ligand by SPR is a well-known method for the skilled person.\nThe target protein uPAR was captured, via a protein tag, onto a sensor chip and the test compound (Pb2+-DOTA-AE105 and Cu2+-DOTA-AE105 respectively) were dissolved in running buffer (10 mM HEPES buffer at pH 7.4, 150 mM NaCl, […]+0.05% Tween-20) and prepared in 5-point concentration series with three-fold dilution with top concentration around 500 nM of the test compound. The assay was conducted at 18 degrees Celsius."}}, "note": "Like-named read-outs stand apart in the source and are kept apart here. For at least one compound, name, drawing or mass did not settle the structure."}
{"smiles": "CC(C)C[C@H](NC(=O)[C@H](Cc1ccc(O)cc1)NC(=O)C(CCCNC(=N)N)NC(=O)C(CO)NC(=O)C(Cc1ccccc1)NC(=O)[C@H](CC1CCCCC1)NC(=O)[C@H](CC(=O)O)NC(=O)CN1CCN(CC(=O)O)CCN(CC(=O)O)CCN(CC(=O)O)CC1)C(=O)N[C@@H](Cc1c[nH]c2ccccc12)C(=O)N[C@@H](CO)C(N)=O", "note": "(single isomer, unassigned) [67Cu-DOTA-AE105, metal not drawn]", "values": [{"measurement": "Median survival time", "setting": "[1]; group B, 29.6 MBq on day 0", "result": 21, "unit": "days"}, {"measurement": "Median survival time", "setting": "[1]; group C, 29.6 MBq on day 0 and 30.1 MBq on day 14", "result": 21, "unit": "days"}, {"measurement": "Median survival time", "setting": "[1]; group D, 59.5 MBq on day 0", "result": 29, "unit": "days"}]}
{"smiles": "CC(C)C[C@H](NC(=O)[C@H](Cc1ccc(O)cc1)NC(=O)[C@@H](CCCNC(=N)N)NC(=O)[C@@H](CO)NC(=O)[C@H](Cc1ccccc1)NC(=O)[C@H](CC1CCCCC1)NC(=O)[C@@H](CC(=O)O)NC(=O)CN1CCN(CC(=O)O)CCN(CC(=O)O)CCN(CC(=O)O)CC1)C(=O)N[C@@H](Cc1c[nH]c2ccccc12)C(=O)N[C@@H](CO)C(N)=O", "note": "[Pb2+-DOTA-AE105]", "values": [{"measurement": "Kd", "setting": "uPAR", "result": 17.4, "unit": "nM"}]}
